Results are given in words; binding and its absence hold for the method and conditions named. In cells and extracts the contact can be indirect. Some entries that bind do so weakly or less than the wild type.
Target: T1, SIRT2 (mouse (endogenous in BV-2)) (UniProt Q8VDQ8)
T1 sequence: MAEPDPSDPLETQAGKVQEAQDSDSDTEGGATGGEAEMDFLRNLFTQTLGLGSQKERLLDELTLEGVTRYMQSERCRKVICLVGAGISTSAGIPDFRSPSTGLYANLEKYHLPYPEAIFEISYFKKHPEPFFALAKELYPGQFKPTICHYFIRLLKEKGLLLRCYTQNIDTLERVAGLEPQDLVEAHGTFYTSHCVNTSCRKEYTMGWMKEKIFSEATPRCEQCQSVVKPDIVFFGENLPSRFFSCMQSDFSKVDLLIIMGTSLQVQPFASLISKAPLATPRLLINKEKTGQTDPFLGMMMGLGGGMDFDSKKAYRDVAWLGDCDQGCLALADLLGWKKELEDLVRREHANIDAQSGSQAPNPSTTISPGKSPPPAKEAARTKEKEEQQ
Experiment: co-IP; anti-SIRT2 antibody (rabbit IgG as control) and protein A/G magnetic beads on lysates of BV-2 cells; cells treated with S-KET or R-KET (100 µM, 2 h) and then LPS (20 ng/mL, 1 h); lysis buffer 25 mM Tris pH 8.0, 150 mM KCl, 5 mM EDTA, 0.5% NP-40; p65 and Ac-p65 detected by immunoblotting

By UniProt entry, the sequences of proteins in these tests, tags left out.
UniProt Q04207: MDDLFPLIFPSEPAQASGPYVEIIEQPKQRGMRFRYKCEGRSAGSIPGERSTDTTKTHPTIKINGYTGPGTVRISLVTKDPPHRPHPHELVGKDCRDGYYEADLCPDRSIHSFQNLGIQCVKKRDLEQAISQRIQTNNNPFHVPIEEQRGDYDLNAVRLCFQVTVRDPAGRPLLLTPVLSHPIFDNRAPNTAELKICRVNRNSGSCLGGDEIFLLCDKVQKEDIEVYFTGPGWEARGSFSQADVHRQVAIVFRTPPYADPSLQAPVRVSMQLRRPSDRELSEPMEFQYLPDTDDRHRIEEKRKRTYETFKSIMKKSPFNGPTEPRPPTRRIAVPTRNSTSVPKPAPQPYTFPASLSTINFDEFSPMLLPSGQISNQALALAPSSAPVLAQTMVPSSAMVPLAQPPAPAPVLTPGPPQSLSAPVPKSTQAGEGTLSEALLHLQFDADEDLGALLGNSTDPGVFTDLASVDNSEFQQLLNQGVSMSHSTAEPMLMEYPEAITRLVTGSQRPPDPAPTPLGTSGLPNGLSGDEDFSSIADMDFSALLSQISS

binding	Substance
binds	NF-κB subunit p65 (from UniProt Q04207 1-549)
binds	acetylated p65 (from UniProt Q04207 1-549)

Source: publication PMC12199433
